These results are taken from patent publication US20180119166A1.

By UniProt entry, the sequences of proteins in these tests, tags left out. Where a name states a change or a piece, a line headed by the entry shows the natural chain unless it says otherwise. Chains listed by the source or under a name are the forms on record and can include a tag or linker.
6x-histidine-fused LOS4 (LOS4-His) (Q93ZG7, form named): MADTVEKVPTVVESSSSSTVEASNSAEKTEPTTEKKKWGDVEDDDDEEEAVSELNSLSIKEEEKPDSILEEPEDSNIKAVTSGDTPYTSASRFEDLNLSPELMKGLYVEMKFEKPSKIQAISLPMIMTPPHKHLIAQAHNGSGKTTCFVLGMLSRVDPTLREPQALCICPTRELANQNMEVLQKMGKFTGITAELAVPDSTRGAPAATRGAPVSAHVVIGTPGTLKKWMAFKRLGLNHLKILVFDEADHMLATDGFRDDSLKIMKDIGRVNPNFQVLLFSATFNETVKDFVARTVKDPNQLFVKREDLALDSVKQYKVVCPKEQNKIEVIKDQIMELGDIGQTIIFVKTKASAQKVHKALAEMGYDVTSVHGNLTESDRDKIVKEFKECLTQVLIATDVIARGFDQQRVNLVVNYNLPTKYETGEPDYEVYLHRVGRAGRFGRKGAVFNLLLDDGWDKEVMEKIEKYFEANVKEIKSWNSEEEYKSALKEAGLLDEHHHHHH

The target in the test is T1, maltose-binding protein (MBP)-fused Gle1 (MBP-Gle1) (Arabidopsis) (UniProt Q0WPZ7).
T1 sequence: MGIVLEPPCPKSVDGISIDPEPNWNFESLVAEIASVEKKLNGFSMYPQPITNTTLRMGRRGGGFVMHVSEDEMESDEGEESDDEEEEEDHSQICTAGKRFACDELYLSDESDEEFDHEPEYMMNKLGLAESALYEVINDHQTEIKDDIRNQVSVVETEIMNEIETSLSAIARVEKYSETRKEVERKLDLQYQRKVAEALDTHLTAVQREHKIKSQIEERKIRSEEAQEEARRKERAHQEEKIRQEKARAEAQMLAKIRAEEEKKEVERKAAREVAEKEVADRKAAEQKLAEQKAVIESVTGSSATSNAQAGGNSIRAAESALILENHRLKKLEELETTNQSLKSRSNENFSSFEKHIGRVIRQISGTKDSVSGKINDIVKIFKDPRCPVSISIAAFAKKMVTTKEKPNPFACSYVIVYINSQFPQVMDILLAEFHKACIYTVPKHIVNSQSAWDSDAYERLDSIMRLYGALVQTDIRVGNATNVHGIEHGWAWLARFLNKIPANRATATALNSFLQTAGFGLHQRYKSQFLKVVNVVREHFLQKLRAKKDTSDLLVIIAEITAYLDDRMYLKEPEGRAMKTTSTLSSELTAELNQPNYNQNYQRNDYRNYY
The test is described as follows: in vitro pull-down on nickel resin, Coomassie blue staining.

No constants are given. Whether binding was seen depends on the method and setting. In cells and extracts the contact can be indirect. Some entries that bind do so weakly or less than the wild type. Where a sequence is shown, tags or fusion partners need not be part of it.

As for “6x-histidine-fused LOS4 (LOS4-His) (from UniProt Q93ZG7 1-496) (enzyme)”, the binding entry is “binds”.
